Results are given in words; binding and its absence hold for the method and conditions named. Binding seen in cells or lysates may run through a third protein. For part of these data: A result given as binding can be weak or reduced; the word gives no strength.
Assays:
Experiment in all cases: co-IP; HeLa cells infected with strains expressing CpoS-FLAG (ortholog or variant) and transfected with EGFP-Rab plasmids; CpoS-FLAG precipitated from lysates at 26 hpi with ANTI-FLAG M2 magnetic beads; western blot
[1] = molecular target: CpoS(D)-FLAG (C. trachomatis serovar D) (UniProt O84232)
[2] = molecular target: CpoS(L2-CC1*)-FLAG (C. trachomatis serovar L2)
[3] = molecular target: CpoS(L2-CC2*)-FLAG (C. trachomatis serovar L2)
[4] = molecular target: CpoS(L2Δ60)-FLAG (C. trachomatis serovar L2)

By UniProt entry, the sequences of proteins in these tests, tags left out.
UniProt P20338: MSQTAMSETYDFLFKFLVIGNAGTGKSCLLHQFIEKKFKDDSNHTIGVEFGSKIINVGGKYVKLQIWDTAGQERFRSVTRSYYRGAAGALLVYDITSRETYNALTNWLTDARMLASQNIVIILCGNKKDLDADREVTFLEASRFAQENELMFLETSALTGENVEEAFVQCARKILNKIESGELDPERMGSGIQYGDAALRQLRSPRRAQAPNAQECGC
UniProt P62820: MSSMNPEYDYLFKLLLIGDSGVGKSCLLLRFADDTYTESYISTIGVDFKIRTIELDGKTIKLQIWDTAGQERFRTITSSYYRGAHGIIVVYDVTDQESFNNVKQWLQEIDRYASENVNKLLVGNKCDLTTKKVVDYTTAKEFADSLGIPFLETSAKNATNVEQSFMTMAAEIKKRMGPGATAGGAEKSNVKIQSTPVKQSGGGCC
UniProt Q15286: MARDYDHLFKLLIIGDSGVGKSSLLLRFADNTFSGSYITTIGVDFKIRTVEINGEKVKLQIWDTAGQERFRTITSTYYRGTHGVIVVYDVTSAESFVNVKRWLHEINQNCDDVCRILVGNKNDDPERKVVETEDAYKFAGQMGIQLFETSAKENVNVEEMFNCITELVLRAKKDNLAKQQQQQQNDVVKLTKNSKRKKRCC

Question: For EGFP-Rab4A (from UniProt P20338 1-218), which binding [1] is on record?
Answer: binds

Question: And the binding [2]?
Answer: no binding

Question: What about the binding [3] of the same substance?
Answer: binds

Question: And the binding [4]?
Answer: no binding

Question: With EGFP-Rab1A (from UniProt P62820 1-205) as the substance, how does the binding [1] read?
Answer: binds

Question: What about the binding [2] of the same substance?
Answer: no binding

Question: What about the binding [3] of the same substance?
Answer: binds

Question: And the binding [4]?
Answer: no binding

Question: EGFP-Rab35 (from UniProt Q15286 1-201) was tested. Which binding [1] did it give?
Answer: binds

Question: And the binding [2]?
Answer: no binding

Question: And the binding [3]?
Answer: binds

Question: What about the binding [4] of the same substance?
Answer: binds

— publication PMC10470785
